The values below come from article PMC5762634.

Sequences of proteins named here, by UniProt entry; tags and fusion partners are left off. A change or cut given only in a name is not applied to a line headed by its entry.
UniProt P51858: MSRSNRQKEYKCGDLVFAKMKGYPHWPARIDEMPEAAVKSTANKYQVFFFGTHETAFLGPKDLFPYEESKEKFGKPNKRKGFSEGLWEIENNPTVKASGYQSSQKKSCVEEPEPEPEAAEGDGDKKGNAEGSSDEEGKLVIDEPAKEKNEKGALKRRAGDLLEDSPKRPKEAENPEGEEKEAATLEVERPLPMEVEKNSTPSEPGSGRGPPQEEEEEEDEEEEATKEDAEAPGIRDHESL

The data set has as its target HDGF full-length (human) (UniProt P51858). As to the kind of experiment: solid-phase binding assay (preformed HDGF-DNA complex shows reduced NCL binding). As to conditions: nucleolin-coated plate; SEC: 20 mM Tris-HCl pH 7.5, 5 mM EDTA, 5 mM beta-ME, no added salt; protein:DNA 1:1, incubated overnight at 4 C; recombinant protein; residues 1-240.

The exact form of at least one protein or probe is not confirmed. At least one verdict rests on a figure or table, not on a statement of the authors.

In the case of “CAGGCTGGTCTTGAA (double strand) [15-bp SMYD1]”, the binding result is on record as “binds”.
